## Library screening results

Amino acid sequences for entries named in this document (tags omitted).
UniProt E9BF75, entry or part of it: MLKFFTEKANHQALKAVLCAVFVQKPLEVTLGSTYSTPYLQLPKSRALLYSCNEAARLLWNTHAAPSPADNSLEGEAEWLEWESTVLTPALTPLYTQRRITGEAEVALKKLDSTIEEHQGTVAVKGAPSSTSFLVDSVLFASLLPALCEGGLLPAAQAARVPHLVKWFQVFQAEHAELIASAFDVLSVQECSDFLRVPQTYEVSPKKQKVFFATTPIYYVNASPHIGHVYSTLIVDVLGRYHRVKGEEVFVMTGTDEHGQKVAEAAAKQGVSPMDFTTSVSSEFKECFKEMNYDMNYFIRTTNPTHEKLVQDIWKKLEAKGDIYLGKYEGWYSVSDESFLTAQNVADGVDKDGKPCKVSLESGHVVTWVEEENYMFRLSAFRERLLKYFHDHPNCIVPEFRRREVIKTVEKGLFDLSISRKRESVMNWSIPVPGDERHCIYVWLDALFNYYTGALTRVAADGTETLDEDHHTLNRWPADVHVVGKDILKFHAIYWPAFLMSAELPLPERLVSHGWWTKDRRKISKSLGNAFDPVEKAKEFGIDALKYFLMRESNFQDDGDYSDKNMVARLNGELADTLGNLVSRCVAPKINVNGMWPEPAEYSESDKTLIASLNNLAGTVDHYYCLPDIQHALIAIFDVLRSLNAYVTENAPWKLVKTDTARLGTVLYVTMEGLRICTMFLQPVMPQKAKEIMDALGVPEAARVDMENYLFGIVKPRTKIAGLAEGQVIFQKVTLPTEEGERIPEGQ

Data taken from ChEMBL document CHEMBL3988442, “University of Dundee, Small-Polar-MMV Screening Library” (2021).

Mtb heat-shock: 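Assay on Mycobacterium tuberculosis, filed only as a heat shock assay from Cornell; the read-out is not stated. The concentration is filed as 10 mM, unlikely as a test dose, so the dose is not known. The record gives no direction; compounds that gave an IC50 in retests scored well above the rest, so higher reads as stronger inhibition. Of about 69,000 compounds tested this way, about 930 (1.4%) reached 50% or more in at least one test.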
LdMetRS: 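Primary screen of methionyl-tRNA synthetase; the read-out is not stated. Target: Methionyl-tRNA synthetase (putative), Leishmania donovani (UniProt E9BF75). The test concentration is not given. Values are per cent inhibition. Size under these conditions: about 68,000 compounds, about 24 of them at 50% or above in at least one test.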
Mtb growth Cornell: 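Whole-cell assay for inhibitors of Mycobacterium tuberculosis growth, labelled Cornell in the record; the read-out is not stated. The concentration is filed as 10 mM, unlikely as a test dose, so the dose is not known. Higher means stronger inhibition (inferred from two other growth screens of the library). Of about 53,000 compounds tested this way, about 900 (1.7%) reached 50% or more in at least one test.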

Results are percentages, as filed. The controls that fix the scale are not given in the record; negative values are as filed. This is an unselected part of the compounds tested. A dash means the value is not listed here; it may have been measured.

Compound,Mtb heat-shock,LdMetRS,Mtb growth Cornell
C1CCc2nnc(CNc3nc(C4CC4)nc4c3CCNCC4)n2CC1,-12.91%,11.23%,-
Clc1cccc(Cl)c1CN(CCCN1CCOCC1)Cc1cccnc1,-17.02%,17.72%,3.081%
Cc1cccc(C)c1OC1CN(Cc2cnc(N3CCOCC3)nc2)C1,-5.172%,21.88%,10.47%
O=C1NCCN(Cc2ccccc2)C1CC(=O)N1CCc2n[nH]cc2C1 (centres undefined),-213.2%,7.553%,-
O=C(O)C(F)(F)F.[H][C@]12CCC[C@@]1(COC)CN(C(=O)Cc1ccccn1)C2,12.87%,-,-20.44%
CN1CCN(C2CCN(Cc3cn4ccccc4n3)CC2)C1=O,-3.582%,4.762%,-
Cc1cccc(NC(=O)CCNCc2c(C)nn(C)c2N(C)C)n1,16.27%,16.67%,30.77%
CC(C)CNC(=O)c1cc2c(s1)CCN2S(C)(=O)=O,-13.5%,13.42%,-19.48%
CO[C@H]1COC[C@@H]1NC(=O)C1(Oc2ccc(Cl)cc2)CCNCC1,-4.868%,13.17%,11.56%
Fc1ccc(CN2CC[C@H]3O[C@@H](COCC4CCOCC4)CC[C@H]32)cc1,-,1.742%,-
Cc1occc1C(=O)N1CCC2(CCN(C(=O)c3cccnc3)C2)CC1.O=C(O)C(F)(F)F,-11.28%,-,7.246%
Fc1cccc(-c2cccc(N3CCC(NC4CCCOC4)CC3)c2)c1 (centres undefined),30.05%,5.296%,23.21%
Cn1cnc(S(=O)(=O)N2CC3(CCN(Cc4ccncc4)C3)C2)c1,-,11.14%,-
Cc1nc(CCNC(=O)C2CC(=O)N(C(C)C)C2)cs1 (centres undefined),-16.81%,9.581%,-18.38%
N#CCSCCCN1CCN(C(=O)c2ccc(Cl)cc2)CC1,-17.48%,2.5%,4.129%
O=C(O)C(F)(F)F.[H][C@@]12OCCN(C(=O)N3CCCC3)[C@@]1([H])CC[C@@H]2OCc1cccnc1,-23.49%,-,17.15%
COCCN1CCCC1c1nccnc1Nc1nccs1 (centres undefined),-9.826%,10.12%,-
[H][C@@]12COC[C@]1(CNS(C)(=O)=O)CN(C(=O)c1ncccn1)C2,-2.392%,-,-5.485%
COc1ccc(C(C(=O)O)N2CCC(O)(c3cccnc3)CC2)cc1Cl (centres undefined),-17.33%,4.897%,9.377%
CCCc1nnc(NCc2ccc(OC)c(C#N)c2)o1,-14.37%,6.452%,-18.19%
O=C(O)C(F)(F)F.O=C(O)C(F)(F)F.[H][C@]12CCN(Cc3ccco3)[C@@]1([H])CC[C@@H](COCc1cccc(C)n1)O2,-29.9%,-,40.4%
CC[S+]([O-])CCc1nc(CC(C)C)nn1-c1ccc2c(c1)OCCO2 (centres undefined),-33.72%,5.584%,-
CNC(=O)c1[nH]nc2c1CN(c1cc(C3CCCNC3)nc(C)n1)CC2 (centres undefined),-33.71%,16.03%,-
Cc1ccsc1C(=O)Nc1cnn(CC(=O)NC2CCCC2)c1,-10.93%,3.546%,-20.69%
O=C(N1CCCC1)N1CCC2(CC1)CN(c1cccnc1)C(=O)CO2.O=C(O)C(F)(F)F,-4.597%,-,-1.708%
CC(=O)Cn1ncc(N2CCOCC2)cc1=O,-3.622%,9.164%,13.69%
Cc1cc(C)n(NC(=O)c2ccccc2F)c(=O)c1,-23.88%,-0.8108%,-50.42%
NCCc1cccc(CN2CCN(c3cccc(Cl)c3)C(=O)C2)c1,11.38%,12.79%,12.48%
O=C(c1cc(Cl)c2c(c1)OCO2)N1CCN(c2nccs2)CC1,4.416%,11.33%,18.31%
Cc1ncc(CN2CCC(CNS(=O)(=O)C3CC3)C2)cn1 (centres undefined),-0.4272%,9.6%,-
O=C(NCc1ccon1)Nc1cc(F)ccc1N1CCCCC1,9.793%,16.53%,-
CN(Cc1ccccn1)C1COC2(CCN(Cc3nccs3)CC2)C1 (centres undefined),2.525%,17.15%,7.102%
Cc1cc(N2CCCC2c2nnc3n2CCCCC3)nc(C)n1 (centres undefined),66.84%,5.149%,-0.04414%
CCc1nnc2n1CCN(CC(O)c1ccc3c(c1)OCCO3)C2 (centres undefined),-17.34%,8.571%,-
CC(C)c1ccc(CC(=O)N2CCCC3(CN(C)C(=O)O3)C2)cc1 (centres undefined),-13.23%,7.003%,-
CCn1nc(C)c(CNC(=O)c2cn(CC3CCCO3)nn2)c1C (centres undefined),-7.291%,15.61%,-30.41%
Cc1nc(C(=O)Nc2cccnc2)c(C(C)C)s1,-8.023%,20.38%,51.63%
Cc1ccc(S(=O)(=O)NCC(C)C#N)cc1Br (centres undefined),-14.25%,12.78%,-
Cc1occc1C(=O)N1CCN2C[C@H](Oc3cccnc3)C[C@H]2C1,-,6.25%,-
Cn1cc(CN2CCCC(CCCc3ccccn3)(C(N)=O)C2)cn1 (centres undefined),-7.394%,10.42%,17.12%
Cc1nn(C)c(C)c1S(=O)(=O)NCC1CCN(c2ccccn2)CC1,-16.35%,3.597%,-3.994%
Cc1occc1C(=O)Nc1cccc(C(=O)OCC2CCCN2)c1.Cl (centres undefined),-132.3%,-,-
O=C(O)C(F)(F)F.O=C(O)C(F)(F)F.[H][C@@]12OCCN(Cc3ccoc3)[C@@]1([H])CC[C@H]2OCc1ccncc1,-10.25%,-,-7.262%
[H][C@@]12C[C@@H](OCc3ccccc3)C[C@]1([H])CN(Cc1cncnc1)C2,1.831%,-,-61.86%
Cc1ccc(CNc2cc3[nH]c(O)nc3cc2C)cc1,30.26%,16.32%,40.1%
O=C(O)C(F)(F)F.O=C(O)C(F)(F)F.[H][C@@]12C[C@@H](Oc3cncnc3)CN1CCN(c1ncc(F)cn1)C2,20.59%,-,-7.597%
CCN1CCC(CNC(=O)Nc2cc(C)on2)C1 (centres undefined),-18.83%,11.85%,-2.711%
O=C(CCCc1nc2ccccc2[nH]1)N1CCCC1c1ccccn1 (centres undefined),-7.03%,9.61%,-18.86%
O=C(O)C(F)(F)F.[H][C@]12CN(C)C[C@@]1(C(=O)O)CCCN(C(=O)NCc1cccc(F)c1)C2,-18.46%,-,-38.23%
CN(C)c1nc2n(c(=O)n1)CCN2C(=O)Nc1ccc(Cl)c(Cl)c1,-31.9%,0%,104.9%
Cn1c(CN2CCC(OCc3cccnc3)CC2)cc2ccccc21,2.718%,3.922%,-15.87%
O=C1N(CC2CC2)C(c2cncs2)NC12CCCC2 (centres undefined),-10.73%,-9.181%,-0.8051%
CCn1cc(CN2CCc3nc(-c4ccccn4)nc(O)c3C2)cn1,8.415%,15.62%,30.59%
Cc1nn2c(N3CCC(O)CC3)cc(-c3ccccc3)nc2c1C,29.3%,19.5%,72.96%
CCCS(=O)(=O)N1C[C@H]2C[C@H](C(=O)Nc3cccnc3)[C@@H](C1)O2,-,8.955%,-
COCc1ccc(C(=O)NS(=O)(=O)c2ccc3c(c2)CCC(=O)N3)cc1,-6.062%,6.052%,7.439%
CCC1=NC2(CCC(C(=O)Nc3ccc(C)nc3)CC2)C(=O)N1C (centres undefined),2.54%,18.03%,-0.4316%
CCOCC1CN(S(=O)(=O)c2cccc(C)c2)Cc2nccn2C1 (centres undefined),31.58%,13.49%,1.844%
CCSc1ncc(CN2CCN(c3nc(C)ncc3C)CC2)cn1,-22.28%,15.12%,27.4%
Cc1nc(-c2ccccc2)sc1C(=O)NCCNc1ncccn1,-13.81%,14.17%,26.58%
COC(=O)Nc1ccc(CNc2cncc(-n3cccn3)n2)cc1,-0.8303%,25.57%,-
COCC(=O)N1CCC2(CC1)CC(COC)N(Cc1ccccn1)C2.O=C(O)C(F)(F)F (centres undefined),9.323%,-,3.714%
CCOCC(=O)NC1(c2cccc(Cl)c2)CC1,21.58%,2.174%,2.748%
CC(C)N1CC[C@H]2[C@H](C[C@@H](Cn3cccn3)N2c2nccs2)C1,-,7.65%,-
O=C(O)C(F)(F)F.O=C(O)C(F)(F)F.[H][C@]12CC(=O)N(Cc3cccc(C)n3)[C@@]1([H])CCN2Cc1nccs1,-3.796%,-,13.73%
COc1cccc(CN2CCCCC2c2n[nH]cc2-c2cc(C)no2)c1.Cl (centres undefined),13.26%,-,6.731%
O=C1C[C@H]2[C@@H](CCN2Cc2ccccn2)N1Cc1cccnc1,-,16.25%,-
CS(=O)(=O)N1CC[C@H]2C[C@@H](C(=O)N3CCOCC3)O[C@@H]2C1,-,6.276%,-

Once more, the final 4:

| Compound | Mtb heat-shock | LdMetRS | Mtb growth Cornell |
|---|---|---|---|
| `O=C(O)C(F)(F)F.O=C(O)C(F)(F)F.[H][C@]12CC(=O)N(Cc3cccc(C)n3)[C@@]1([H])CCN2Cc1nccs1` | -3.796% | - | 13.73% |
| `COc1cccc(CN2CCCCC2c2n[nH]cc2-c2cc(C)no2)c1.Cl` (centres undefined) | 13.26% | - | 6.731% |
| `O=C1C[C@H]2[C@@H](CCN2Cc2ccccn2)N1Cc1cccnc1` | - | 16.25% | - |
| `CS(=O)(=O)N1CC[C@H]2C[C@@H](C(=O)N3CCOCC3)O[C@@H]2C1` | - | 6.276% | - |